# This is one part of the list. Shown are side measurements of this screen, not its main read-out; they come without a call. Most of these compounds were active or inconclusive in the main read-out, so they are no random draw. Potencies come from curve fits of mixed quality, noted in brackets.
# Assay: IkB Signaling
# Conditions: ABC-DLBCL IkBa-CBG/CBR dual luciferase ratio (green luciferase fused to IkBa over red control in OCI-Ly3 lymphoma cells), 4 h
# Excerpt: NIH Molecular Libraries Screening Centers Network [MLSCN]
# NIH Chemical Genomics Center [NCGC]
# Nuclear factor kappa-B (NF-kappa-B) plays an important role in normal B cell development and survival. Diffuse large B cell lymphoma (DLBCL) is the most commonly observed type of non-Hodgkin's lymphoma. Gene expression analysis has identified an activated B cell-like subtype of DLBCL (ABC-DLBCL) which expresses known NF-kappa-B target genes. […] However, targets upstream of IKK have been largely unexplored and so nodes upstream of IKK in the NF-kappa-B pathway remain untested due to the lack of chemical probes.
# A cell-sensor assay for I-kappa-B-alpha stabilization was developed with NIH investigator Dr. R. Eric Davis in Dr. Louis M. Staudt's laboratory. The assay uses green (CBG68) and red (CBR) emitting beetle luciferases [Chroma-Glo(TM) developed by Promega Corp.] where the green luciferase is fused to I-kappa-B-alpha and the red luciferase is present in its native state. Both luciferase genes are stably present in the OCI-Ly3 human ABC DLBCL cell line, but their expression is under the control of tetracycline-inducible promoters. Following the addition of doxycycline to induce expression of the luciferases, the green luminescence in control cultures rises only slowly because the CBG fusion partner I-kappa-B-alpha is targeted by IKK activity for rapid degradation. In contrast, green luminescence rises rapidly in the presence of proteasome inhibitors or IKK inhibitors. The rise in red luminescence of CBR is not affected by proteasome or IKK inhibitors, and serves as normalization for cell number and nonspecific effects. Compounds were screened as a concentration-titration series that ranged from 57 uM to 0.7 nM.
# NCGC Assay Protocol Summary:
# Cells were seeded in 1536-well plates at 5000 cells/3ul in IMDM medium containing 0.5% FBS, w/o phenol red, L-glutamine, 25 mM HEPES, 3 mg/ml sodium bicarbonate. After centrifugation for 1 min. at 1000 rpm, 23 nl of compounds or DMSO were delivered to each well using a pin tool. Then 1ul 80ng/ml doxycycline was dispensed into white solid 1536-well plates and the plates were incubated at 37C/5% C02 in a cell incubator for 4 hrs. Then 4 ul Chroma-Glo luminescent substrate mix (Promega) was added to each well. The plate was incubated at R.T. for 10-15 min. The plates were measured on a ViewLux plate reader for green luminescence (540/20 nm filter) and red luminescence (618/8 nm filter). The green and red luminescent signals were corrected for red and green luminescence filter overlap using previously determined filter calibration constants (determined using the procedure outlined in the Promega Technical Manual). The %Activity was determined from the ratio of corrected green/red luminescent values. Green luminescent and ratio %Activity was determined by normalizing to the difference in signal between basal cells (0% Activity) and cells incubated with 10 uM of the proteasome inhibitor MG-132 (100% Activity). Red luminescent %Activity was normalized to the difference between red luminesence in basal cells (0%Activity) and zero luminescence (-100% Activity).
# Concentration-response curves were fitted to the signals arising from the green luminescence (I-kappa-B-alpha-luciferase fusion; IkB-luc) and the red luminescence (unfused luciferase; luc) as well as the calculated ratio. The concentration-effect curves were then classified based on curve quality (r2), response magnitude and degree of measured activity. Compounds were then categorized based on their concentration-response curves for all three datasets (Ikb-luc, luc and ratio).
# Keywords: IKK, I-kappa-B, IkB, IkBa, cytotoxicity, luminescence, MLSMR, MLSCN, NIH Roadmap, qHTS, NCGC
# [1] = measured here: control luc red channel unless noted
smiles,measurement,setting,value
COc1ccccc1-c1nn(CCC(=O)Nc2ccccc2)c2nc(C)cc(C)c12,AC50,[1],"10 µM [falling, partial curve]"
Cc1ccc2nc(-c3ccc(C)s3)c(Nc3ccc4c(c3)OCCO4)n2c1,AC50,[1],"15.8 µM [falling, partial curve]"
O=C(NCc1ccccc1Cl)c1ccc2c(c1)NC(=O)C(CS(=O)(=O)Cc1ccc(Cl)cc1)N2 (stereo unspecified),AC50,[1],"20 µM [falling, partial curve]"
Cc1ccc2[nH]cc(C(c3ccccc3)c3ccc(Cl)s3)c2c1 (stereo unspecified),AC50,[1],"3.16 µM [falling, partial curve]"
Cc1cccc2sc(N(Cc3cccnc3)C(=O)c3ccco3)nc12,AC50,[1],"25.1 µM [falling, partial curve]"
O=C(NCc1ccco1)c1ccc(S(=O)(=O)N2CCCc3ccccc32)cc1,AC50,[1],"15.8 µM [falling, partial curve]"
CCOc1ccc(NC(=O)CN2C(=O)c3ccccc3Sc3ccc(C(=O)OC)cc32)cc1,AC50,[1],"2.51 µM [falling, partial curve]"
Cc1cc(C)cc(-n2c(SCC(=O)NCc3ccc(F)cc3)nc3c([nH]c4ccccc43)c2=O)c1,AC50,[1],"1.58 µM [rising, full curve]"
Cc1ccc2c(c1)c(=O)c1ccccc1n2CCCC(=O)Nc1ccc(Cl)c(Cl)c1,AC50,[1],"7.94 µM [falling, full curve]"
COc1cc(NC(=O)CSc2nc(-c3ccccc3)no2)cc(OC)c1,AC50,[1],"5.01 µM [falling, partial curve]"
COc1cccc(NC(=O)CN2C(=O)CC(c3ccco3)Sc3ccccc32)c1 (stereo unspecified),AC50,[1],"31.6 µM [falling, partial curve]"
COC(=O)c1sc(-c2ccccc2)cc1NC(=O)c1cccc(Cl)c1,AC50,[1],"0.0501 µM [falling, full curve, poor fit]"
Cc1cccc(C)c1NC(=O)C(=O)NCC(c1cccnc1)N1CCc2ccccc21 (stereo unspecified),AC50,[1],"1.58 µM [falling, partial curve]"
CN(C)c1ccc(C(=C2C=CC(=[N+](C)C)C=C2)c2ccc(N(C)C)cc2)cc1,AC50,measured here: IkB-luc green channel,"20 µM [falling, full curve, poor fit]"
same,AC50,measured here: control luc red channel,"0.631 µM [falling, full curve]"
O=C(CSc1nc2c([nH]c3ccccc32)c(=O)n1-c1ccc(Cl)cc1)NC1CCCCC1,AC50,[1],"0.316 µM [falling, full curve, poor fit]"
CSc1nc(C)c2cc(C)oc2n1,AC50,[1],"126 nM [rising, full curve, poor fit] [measured here: IkB-luc green channel]"
CCc1ccc(NC(=O)N2CCN(Cc3nc4ccc(C)cc4o3)CC2)cc1,AC50,[1],"25.1 µM [falling, single point]"
COc1ccc(NC(=O)Cn2nnc(C(=O)NCc3ccco3)c2N)c(OC)c1,AC50,[1],"39.8 µM [rising, partial curve, poor fit]"
Cc1cccc(N(C)C(=O)c2cc3cc4ccc(C)cc4nc3o2)c1,AC50,[1],"15.8 µM [falling, single point]"
Cc1cc(Nc2cccc(Br)c2)n2c(nc3ccccc32)c1C#N,AC50,[1],"1.26 µM [rising, partial curve]"
CCOc1cc(C(Nc2cc(C)ccn2)c2ccc3cccnc3c2O)ccc1OC (stereo unspecified),AC50,[1],"15.8 µM [rising, partial curve] [measured here: IkB-luc green channel]"
Cc1ccc(CNC(=O)c2cn(C3CCCC3)c(=O)c3c2c2ccccc2n3C)o1,AC50,[1],"7.94 µM [falling, partial curve]"
COc1ccc(N2CCN(S(=O)(=O)c3cc(Br)cc4c3N(C(=O)C3CC3)CC4)CC2)cc1,AC50,[1],"10 µM [falling, partial curve, poor fit]"
CC(C)(C)OC(=O)N1CCC(c2c(C(=O)N3CCN(c4ccccn4)CC3)cnn2-c2cccc(F)c2)CC1,AC50,[1],"39.8 µM [falling, single point]"
Cc1ccc(C(=O)NCC(c2ccco2)S(=O)(=O)c2ccccc2)cc1C (stereo unspecified),AC50,[1],"31.6 µM [falling, partial curve]"
CCOC(=O)c1ccc(NS(=O)(=O)c2ccc3c(c2)CCN3C(=O)CC)cc1,AC50,[1],"20 µM [falling, partial curve]"
O=C(CSc1nccn1Cc1ccccc1)Nc1nc2ccccc2s1,AC50,[1],"31.6 µM [falling, single point]"
Cc1cc(C)c(Cn2c(=O)n(Cc3ccccc3)c(=O)c3c(C)c(C)sc32)c(C)c1,AC50,[1],"39.8 µM [falling, single point]"
Cc1ccc(S(=O)(=O)c2nnn(CC(=O)Nc3ccccc3C)c2N)cc1,AC50,[1],"39.8 µM [rising, single point]"
COc1ccc(-n2nc(C(=O)N3CCCCC3)c3c4ccccc4n(C)c3c2=O)cc1Cl,AC50,[1],"1.26 µM [rising, full curve, poor fit]"

# 2 records drawn at random from the list so far, as already listed:
smiles,measurement,setting,value
Cc1ccc2c(c1)c(=O)c1ccccc1n2CCCC(=O)Nc1ccc(Cl)c(Cl)c1,AC50,[1],"7.94 µM [falling, full curve]"
Cc1cccc(C)c1NC(=O)C(=O)NCC(c1cccnc1)N1CCc2ccccc21 (stereo unspecified),AC50,[1],"1.58 µM [falling, partial curve]"
